Data from patent publication US5824529.
Construct, isoform or probe ends are uncertain for at least one entry. For part of these data: Negatives hold for the conditions tested.

Legend:
[1] = tested on: PshAI restriction endonuclease (native) (Plesiomonas shigelloides); experiment: enzyme reaction in vitro; details: purified native protein, protein details: N-terminal sequence SEQ ID NO:16
[2] = tested on: PshAI methylase (pSX34PshAIM1 / pPshAIM19) (Plesiomonas shigelloides); experiment: activity in cells; details: modifies PshAI sites in vivo, making the plasmid resistant to PshAI; protein in cells; protein details: expressed in E. coli; only the site is given

Sequence	activity on this sequence ([1]; PshAI methylase-modified (m6A-gamma-type), plasmid fully protected against PshAI cleavage)	activity on this sequence [2]	activity on this sequence ([1]; plasmid digestion with PshAI, NEBuffer 2, 30 C in the library selection)
GACGGCCGTC (double strand)	not active		
GACGGCCGTC (double strand) [PshAI linker site inserted in pUC19 (pUC19PshAI)]		active	active
